Experimental data: article PMC6944463
These are yes or no findings as the source states them, for the method shown. Binding seen in cells or lysates may run through a third protein. Some results given as binding are weak or reduced against the parent protein; the word gives no strength. For part of these data: Where a sequence is shown, tags or fusion partners need not be part of it.

How the values were obtained:
Assay in all cases: co-IP; HEK-293 cells co-transfected with Flag- and HA-tagged THAP constructs; whole-cell lysates, anti-HA immunoprecipitation, immunoblot with anti-HA and anti-Flag
[1] = biological target: THAP11 (Flag- or HA-epitope-tagged) (human) (UniProt Q96EK4)
[2] = biological target: THAP7 (Flag- or HA-epitope-tagged) (human) (UniProt Q9BT49)
[3] = biological target: T1, THAP11 (Flag- or HA-epitope-tagged) (human), Q96EK4; conditions: remark: other sources report otherwise
T1 chain: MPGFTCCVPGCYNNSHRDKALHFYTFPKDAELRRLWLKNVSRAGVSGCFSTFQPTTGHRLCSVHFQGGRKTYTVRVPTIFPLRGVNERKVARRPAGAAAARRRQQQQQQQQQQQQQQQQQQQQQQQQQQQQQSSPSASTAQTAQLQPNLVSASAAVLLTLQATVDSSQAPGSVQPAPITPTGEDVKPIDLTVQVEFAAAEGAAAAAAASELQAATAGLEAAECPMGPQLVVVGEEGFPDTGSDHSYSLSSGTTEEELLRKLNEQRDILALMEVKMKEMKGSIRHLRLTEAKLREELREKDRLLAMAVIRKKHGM

In the case of “THAP11 (Flag- or HA-epitope-tagged) (from UniProt Q96EK4 1-314)”, the binding [1] is reported as “binds”.

B1: THAP7 (Flag- or HA-epitope-tagged) (protein, UniProt Q9BT49 1-309)
chain: MPRHCSAAGCCTRDTRETRNRGISFHRLPKKDNPRRGLWLANCQRLDPSGQGLWDPASEYIYFCSKHFEEDCFELVGISGYHRLKEGAVPTIFESFSKLRRTTKTKGHSYPPGPAEVSRLRRCRKRCSEGRGPTTPFSPPPPADVTCFPVEEASAPATLPASPAGRLEPGLSSPFSDLLGPLGAQADEAGCSAQPSPERQPSPLEPRPVSPSAYMLRLPPPAGAYIQNEHSYQVGSALLWKRRAEAALDALDKAQRQLQACKRREQRLRLRLTKLQQERAREKRAQADARQTLKEHVQDFAMQLSSSMA
For B1, the binding [2] was “binds”.

B2: THAP7 (Flag- or HA-epitope-tagged), Q9BT49 1-309 (protein)
chain: MPRHCSAAGCCTRDTRETRNRGISFHRLPKKDNPRRGLWLANCQRLDPSGQGLWDPASEYIYFCSKHFEEDCFELVGISGYHRLKEGAVPTIFESFSKLRRTTKTKGHSYPPGPAEVSRLRRCRKRCSEGRGPTTPFSPPPPADVTCFPVEEASAPATLPASPAGRLEPGLSSPFSDLLGPLGAQADEAGCSAQPSPERQPSPLEPRPVSPSAYMLRLPPPAGAYIQNEHSYQVGSALLWKRRAEAALDALDKAQRQLQACKRREQRLRLRLTKLQQERAREKRAQADARQTLKEHVQDFAMQLSSSMA
With B2 the binding [3] was “no binding”.
